# Counter-ions that a name gives are not always drawn. The list shows a part of the results. Small differences around the control level are noise.
# Tests used:
# Settings in all cases: 5 µM; treatment: days 7-14 after plating, readout day 21
# [1] = test system: hPSC-derived cortical neurons (WA09); experiment: nucleus area z-score vs screen plate; higher = larger nuclei (more mature)
# [2] = test system: hPSC-derived cortical neurons (WA09); experiment: total neurite length per nucleus (MAP2) z-score; higher = more neurite growth
# [3] = test system: hPSC-derived cortical neurons (WA09); experiment: nucleus roundness z-score vs screen plate; higher = rounder nuclei (more mature)
# [4] = test system: hPSC-derived cortical neurons (WA09); experiment: KCl-induced FOS+/EGR-1+ double-positive nuclei fraction z-score (KCl minus unstimulated); higher = stronger activity-induced IEG response
SMILES,nucleus area z-score [1],total neurite length per nucleus (z-score) [2],nucleus roundness z-score [3],KCl-induced FOS+/EGR-1+ double-positive nuclei fraction z-score [4]
Nc1ccc2ncnc(NCCc3ccc(Oc4ccccc4)cc3)c2c1,0.428,0.366,-0.704,-0.18
O=c1cc(-c2ccccc2)oc2cc(O)cc(O)c12 [Chrysin],-0.318,0.399,0.576,0.126
NCC[C@H](O)C(=O)N[C@@H]1C[C@H](N)[C@@H](O[C@H]2O[C@H](CN)[C@@H](O)[C@H](O)[C@H]2O)[C@H](O)[C@H]1O[C@H]1O[C@H](CO)[C@@H](O)[C@H](N)[C@H]1O [Amikacin hydrate],-1.22,-0.255,-1.14,-0.981
CCc1oc2ccccc2c1C(=O)c1cc(Br)c(O)c(Br)c1 [Benzbromarone],0.287,0.25,-0.0329,2.08
CC(C)c1nc(CN(C)C(=O)N[C@@H](CCN2CCOCC2)C(=O)N[C@H](CC[C@H](Cc2ccccc2)NC(=O)OCc2cncs2)Cc2ccccc2)cs1 [Cobicistat (GS-9350)],-1.7,-1.35,-0.0687,-0.258
Cc1cn[nH]c1 [Fomepizole],2.01,-1.41,-0.894,0.19
COc1cc2ncnc(Oc3cccc(NC(=O)Nc4cc(C(C)(C)C(F)(F)F)on4)c3)c2cc1OC,0.914,1.01,1.44,0.91
COCCCC/C(=N\OCCN)c1ccc(C(F)(F)F)cc1 [Fluvoxamine maleate],-0.564,0.438,0.346,-0.73
Cc1cc(/N=N/c2ccc(S(=O)(=O)Nc3ccccn3)cc2)c(N)cc1O,-0.92,1.16,-0.237,-0.246
CN1CC(=O)N2[C@H](c3ccc4c(c3)OCO4)c3[nH]c4ccccc4c3C[C@@H]2C1=O [Tadalafil],0.0277,1.08,0.0749,0.427

# From the supplement of paper PMC11348887
